For some assays here: A negative result means that nothing was seen under these conditions. For some assays here: Weaker means in comparison with the reference protein, sequence or condition of that experiment. For some assays here: Tags and fusion partners may be left off the protein sequences shown. For some assays here: Where cells or extracts were used, other partners may take part.
Legend:
Experiment in all cases: EMSA
RAR (hRARα) = biological target: T1, RAR (hRARα) (UniProt P10276); conditions: protein translated in vitro, label: 32P
T1 sequence (looked up, limits assumed): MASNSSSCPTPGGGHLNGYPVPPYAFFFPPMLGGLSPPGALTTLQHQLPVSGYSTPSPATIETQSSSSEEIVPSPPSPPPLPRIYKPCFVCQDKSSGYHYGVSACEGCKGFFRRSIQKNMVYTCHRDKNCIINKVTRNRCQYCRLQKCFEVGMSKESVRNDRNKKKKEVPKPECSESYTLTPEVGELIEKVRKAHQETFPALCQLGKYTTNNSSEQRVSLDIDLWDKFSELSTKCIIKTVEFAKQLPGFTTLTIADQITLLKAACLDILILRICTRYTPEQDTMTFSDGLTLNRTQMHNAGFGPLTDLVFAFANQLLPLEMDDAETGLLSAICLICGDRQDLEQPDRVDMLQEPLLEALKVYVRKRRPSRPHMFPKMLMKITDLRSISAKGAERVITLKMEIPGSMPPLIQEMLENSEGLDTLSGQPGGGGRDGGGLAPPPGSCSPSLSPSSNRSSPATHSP

Chains of the proteins cited; added tags and fusions are not shown. Lines headed by an entry give the natural chain unless they say otherwise; changes in a name come on top. A line that says so, or that is headed by a name, gives the form on record, which may keep a tag or linker.
UniProt P19793: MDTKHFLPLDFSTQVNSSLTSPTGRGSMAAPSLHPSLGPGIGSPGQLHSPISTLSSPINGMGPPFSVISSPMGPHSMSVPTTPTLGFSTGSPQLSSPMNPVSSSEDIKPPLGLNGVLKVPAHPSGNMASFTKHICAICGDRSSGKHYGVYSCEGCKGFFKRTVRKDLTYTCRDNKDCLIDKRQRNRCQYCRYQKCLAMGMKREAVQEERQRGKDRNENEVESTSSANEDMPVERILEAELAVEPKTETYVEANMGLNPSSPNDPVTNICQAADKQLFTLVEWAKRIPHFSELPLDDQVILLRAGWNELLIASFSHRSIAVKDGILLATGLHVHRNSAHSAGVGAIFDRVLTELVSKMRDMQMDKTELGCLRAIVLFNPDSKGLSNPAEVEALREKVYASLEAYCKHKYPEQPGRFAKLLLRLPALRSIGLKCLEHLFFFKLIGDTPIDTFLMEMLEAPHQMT
RARα/RXRα heterodimer (COS extract) (Homo sapiens), one chain, as listed by the source: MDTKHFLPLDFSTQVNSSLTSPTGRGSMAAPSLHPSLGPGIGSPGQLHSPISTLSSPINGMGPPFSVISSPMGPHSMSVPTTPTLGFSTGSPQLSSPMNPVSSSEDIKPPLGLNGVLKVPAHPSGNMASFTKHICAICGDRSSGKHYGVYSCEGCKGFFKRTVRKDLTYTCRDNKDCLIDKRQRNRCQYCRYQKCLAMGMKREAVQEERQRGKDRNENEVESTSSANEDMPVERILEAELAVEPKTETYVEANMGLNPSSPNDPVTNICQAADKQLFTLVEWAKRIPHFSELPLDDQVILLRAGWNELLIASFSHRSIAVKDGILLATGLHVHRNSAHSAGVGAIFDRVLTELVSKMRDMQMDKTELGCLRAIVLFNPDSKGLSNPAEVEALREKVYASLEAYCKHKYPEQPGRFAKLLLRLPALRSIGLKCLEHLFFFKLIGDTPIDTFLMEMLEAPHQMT

RXR (hRXRα) = RXR (hRXRα) (UniProt P19793); conditions: protein translated in vitro, label: 32P
[1] = biological target: T2, RARα (COS extract) (Homo sapiens) (UniProt P10276); conditions: no high affinity complex without RXR; protein in a lysate after overexpression; label: 32P
T2 sequence (looked up, limits assumed): T1 sequence (looked up, limits assumed)

[2] = test system: RARα/RXRα heterodimer (COS extract) (Homo sapiens); conditions: COS whole cell extract; protein in a lysate after overexpression; label: 32P
[3] = biological target: RXRα (COS extract) (Homo sapiens) (UniProt P19793); conditions: no high affinity complex without RAR; protein in a lysate after overexpression; label: 32P
[4] = biological target: RXRalpha (hRXRα) (Homo sapiens) (UniProt P19793); conditions: weak at low amounts; homodimer at higher concentrations; prefers DR-1 over other DRs; purified recombinant protein; protein details: GST fusion, pGEX-2T; label: 32P
[5] = both RAR and RXR required for high affinity binding

Sequence: AGCTGTCACAGGTCACAGGTCACAGGTCACAGTTCAAGCT (double strand) [CRBPII-RXRE]
- binding result (RAR (hRARα); very low affinity alone): binds more weakly
- binding result (RXR (hRXRα); no detectable binding alone): no binding

Sequence: AGCTTAAGGGTTCACCGAAAGTTCACTCGCATAGCTGCT (double strand) [βRARE]
- binding result (RAR (hRARα); [5]): binds more weakly
- binding result [1]: binds more weakly
- binding result [2]: binds
- binding result (RXR (hRXRα); [5]): binds more weakly
- binding result [3]: binds more weakly

Sequence: AGCTTCAGGTCAGAGGTCAGAGAGCT (double strand) [DR-1]
- binding result [4]: binds more weakly

— patent US7038022
